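Luminescence from an EWS-FLI1 target-promoter (NR0B1) reporter, set against a CMV-promoter reporter, two days after silencing single genes in TC32 Ewing sarcoma cells.
Each siRNA was applied at 20 nM.
A z-score of the log NR0B1-over-CMV signal, less the median of siRNAs with the same seed; more negative means a stronger specific loss of the NR0B1 reporter.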

The strongest results of the screen are mostly left out here.
Sequences are the guide (antisense) strand, without overhang.

{"strand": "UCUUAUAUCCAGAACGACC", "gene": "CEP78", "seed-corrected z-score": "-0.3547"}
{"strand": "AUGAGUAAGAUGACCAUCU", "gene": "PTGER4", "seed-corrected z-score": "-1.424"}
{"strand": "UCUGGAAUCAGGGAGGUUU", "gene": "C16orf71", "seed-corrected z-score": "-0.7402"}
{"strand": "UUAACACCUGCAGUAGACC", "gene": "DNAJC27-AS1", "seed-corrected z-score": "-0.9653"}
{"strand": "CUAGUUGGUACUGCCAUGG", "gene": "CREM", "seed-corrected z-score": "-1.105"}
{"strand": "AUAGCUACACUUCUUUUCC", "gene": "APOH", "seed-corrected z-score": "-0.171"}
{"strand": "AAAAGUAUGUCCUACUUUG", "gene": "IL17F", "seed-corrected z-score": "0.8774"}
{"strand": "UAUCUUGUUUCAUGUCUAU", "gene": "ZNF735", "seed-corrected z-score": "-0.3688"}
{"strand": "AAGUGCUCUAGUAUAUUUC", "gene": "IL33", "seed-corrected z-score": "-0.127"}
{"strand": "UGACUUAUAAGCACCCAUG", "gene": "IL1A", "seed-corrected z-score": "0.4424"}
{"strand": "AAACUGUUCAAUAAGGAGC", "gene": "SLC16A12", "seed-corrected z-score": "-0.4485"}
{"strand": "UGAGGAAAAUGAUUCUUCC", "gene": "KLK10", "seed-corrected z-score": "-0.1403"}
{"strand": "UCAACCAUCUGUUUCGUCU", "gene": "SPINK9", "seed-corrected z-score": "-0.1043"}
{"strand": "AAACUAACAGGAUGAAUGC", "gene": "RAET1E", "seed-corrected z-score": "-0.3268"}
{"strand": "ACUGUGAUCAAUGAUUUGG", "gene": "GPR39", "seed-corrected z-score": "0.6281"}
{"strand": "UCUGGAUGUGGGUAGAUCA", "gene": "NKX1-1", "seed-corrected z-score": "0.07628"}
{"strand": "AAUCUCAUAGCGGUAAUGC", "gene": "TMEM150C", "seed-corrected z-score": "-0.7847"}
{"strand": "UCACAUCUUAGUCAGGCAC", "gene": "KLHL40", "seed-corrected z-score": "0.1747"}
{"strand": "ACAGUAGCUGGUAGGAGGC", "gene": "AP5B1", "seed-corrected z-score": "-0.9021"}
{"strand": "UUCUUGAUCCUGUUGCUGG", "gene": "NUMA1", "seed-corrected z-score": "0.2016"}
{"strand": "AAACUUUUAAUUGCACAUU", "gene": "CHCHD10", "seed-corrected z-score": "0.2814"}
{"strand": "UUUGGUUACGAUUUCCUCU", "gene": "ARL6IP4", "seed-corrected z-score": "-1.113"}
{"strand": "UUUCUCACCCUUGCGUUGC", "gene": "SLC25A44", "seed-corrected z-score": "-0.09608"}
{"strand": "UAAACUCCUCUGGACUUUC", "gene": "ZSCAN32", "seed-corrected z-score": "0.004311"}
{"strand": "UGUAGAACUCCGCAUAGCG", "gene": "ALOX12B", "seed-corrected z-score": "0.00971"}
{"strand": "UAUGUACACGUCUCUCUCC", "gene": "SREBF1", "seed-corrected z-score": "-1.761"}
{"strand": "AAGGGCUUCACUUCGUAGC", "gene": "FADS3", "seed-corrected z-score": "-0.1849"}
{"strand": "UGUAUAGUCACGCAGUUCU", "gene": "ZNF417", "seed-corrected z-score": "-0.6559"}
{"strand": "UCAUAUUCCCAGAUGAACC", "gene": "RERG", "seed-corrected z-score": "1.078"}
{"strand": "UUGGUGUUCCUCUCGAAGC", "gene": "SH2D4B", "seed-corrected z-score": "0.1601"}
{"strand": "UAAGUACUCAGGGAUAGAG", "gene": "PDXP", "seed-corrected z-score": "-1.545"}
{"strand": "UAAUCCGCAACAGUUCUGC", "gene": "TOPBP1", "seed-corrected z-score": "1.035"}
{"strand": "AAUGAUCUUAUCUUCUUUG", "gene": "LOC645188", "seed-corrected z-score": "0.2667"}

For reference, 2 entries once more:

{"strand": "UGACUUAUAAGCACCCAUG", "gene": "IL1A", "seed-corrected z-score": "0.4424"}
{"strand": "UUGGUGUUCCUCUCGAAGC", "gene": "SH2D4B", "seed-corrected z-score": "0.1601"}

Data taken from PubChem BioAssay AID1159506, deposited by NCATS (2015).